± gives the standard deviation of the averaged measurements. Some of the results follow.
Compound: Nc1nc2c(ncn2[C@@H]2O[C@H](COP(=O)(O)OP(=O)(O)OP(=O)(O)O)[C@@H](O)[C@H]2O)c(=O)[nH]1 [guanosine triphosphate]
Experiment: NP40-soluble protein abundance relative to vehicle (solubility fold change) (ratio); higher = more soluble protein in presence of GTP
Procedure, shortened: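 Each value is a fold change relative to the detergent-processed vehicle, calculated per replicate from vsn-normalised intensities. Jurkat crude lysate received eight concentrations (0.1 to 10 mM) for 10 min at room temperature and 3 min at 37 °C, then was solubilised in 0.8% NP40 with benzonase (60 min, 4 °C). The ultracentrifuged supernatant was TMT-labelled and run by LC-MS/MS in three independent experiments.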

Sequences of proteins named here, by UniProt entry; tags and fusion partners are left off. A change or cut given only in a name is not applied to a line headed by its entry.
UniProt Q969Y2: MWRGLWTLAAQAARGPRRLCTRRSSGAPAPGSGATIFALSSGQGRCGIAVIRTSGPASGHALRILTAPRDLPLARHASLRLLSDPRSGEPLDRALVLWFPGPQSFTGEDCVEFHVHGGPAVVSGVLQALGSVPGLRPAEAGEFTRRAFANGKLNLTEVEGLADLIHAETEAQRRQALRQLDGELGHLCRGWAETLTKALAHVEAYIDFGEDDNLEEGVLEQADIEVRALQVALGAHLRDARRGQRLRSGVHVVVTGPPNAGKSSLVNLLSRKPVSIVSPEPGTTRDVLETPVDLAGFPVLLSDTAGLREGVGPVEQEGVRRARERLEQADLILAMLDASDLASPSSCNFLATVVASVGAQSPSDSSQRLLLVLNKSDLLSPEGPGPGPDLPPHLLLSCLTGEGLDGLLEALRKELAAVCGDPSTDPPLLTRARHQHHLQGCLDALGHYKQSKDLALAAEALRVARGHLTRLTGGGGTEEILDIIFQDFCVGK
UniProt Q92616, whole entry: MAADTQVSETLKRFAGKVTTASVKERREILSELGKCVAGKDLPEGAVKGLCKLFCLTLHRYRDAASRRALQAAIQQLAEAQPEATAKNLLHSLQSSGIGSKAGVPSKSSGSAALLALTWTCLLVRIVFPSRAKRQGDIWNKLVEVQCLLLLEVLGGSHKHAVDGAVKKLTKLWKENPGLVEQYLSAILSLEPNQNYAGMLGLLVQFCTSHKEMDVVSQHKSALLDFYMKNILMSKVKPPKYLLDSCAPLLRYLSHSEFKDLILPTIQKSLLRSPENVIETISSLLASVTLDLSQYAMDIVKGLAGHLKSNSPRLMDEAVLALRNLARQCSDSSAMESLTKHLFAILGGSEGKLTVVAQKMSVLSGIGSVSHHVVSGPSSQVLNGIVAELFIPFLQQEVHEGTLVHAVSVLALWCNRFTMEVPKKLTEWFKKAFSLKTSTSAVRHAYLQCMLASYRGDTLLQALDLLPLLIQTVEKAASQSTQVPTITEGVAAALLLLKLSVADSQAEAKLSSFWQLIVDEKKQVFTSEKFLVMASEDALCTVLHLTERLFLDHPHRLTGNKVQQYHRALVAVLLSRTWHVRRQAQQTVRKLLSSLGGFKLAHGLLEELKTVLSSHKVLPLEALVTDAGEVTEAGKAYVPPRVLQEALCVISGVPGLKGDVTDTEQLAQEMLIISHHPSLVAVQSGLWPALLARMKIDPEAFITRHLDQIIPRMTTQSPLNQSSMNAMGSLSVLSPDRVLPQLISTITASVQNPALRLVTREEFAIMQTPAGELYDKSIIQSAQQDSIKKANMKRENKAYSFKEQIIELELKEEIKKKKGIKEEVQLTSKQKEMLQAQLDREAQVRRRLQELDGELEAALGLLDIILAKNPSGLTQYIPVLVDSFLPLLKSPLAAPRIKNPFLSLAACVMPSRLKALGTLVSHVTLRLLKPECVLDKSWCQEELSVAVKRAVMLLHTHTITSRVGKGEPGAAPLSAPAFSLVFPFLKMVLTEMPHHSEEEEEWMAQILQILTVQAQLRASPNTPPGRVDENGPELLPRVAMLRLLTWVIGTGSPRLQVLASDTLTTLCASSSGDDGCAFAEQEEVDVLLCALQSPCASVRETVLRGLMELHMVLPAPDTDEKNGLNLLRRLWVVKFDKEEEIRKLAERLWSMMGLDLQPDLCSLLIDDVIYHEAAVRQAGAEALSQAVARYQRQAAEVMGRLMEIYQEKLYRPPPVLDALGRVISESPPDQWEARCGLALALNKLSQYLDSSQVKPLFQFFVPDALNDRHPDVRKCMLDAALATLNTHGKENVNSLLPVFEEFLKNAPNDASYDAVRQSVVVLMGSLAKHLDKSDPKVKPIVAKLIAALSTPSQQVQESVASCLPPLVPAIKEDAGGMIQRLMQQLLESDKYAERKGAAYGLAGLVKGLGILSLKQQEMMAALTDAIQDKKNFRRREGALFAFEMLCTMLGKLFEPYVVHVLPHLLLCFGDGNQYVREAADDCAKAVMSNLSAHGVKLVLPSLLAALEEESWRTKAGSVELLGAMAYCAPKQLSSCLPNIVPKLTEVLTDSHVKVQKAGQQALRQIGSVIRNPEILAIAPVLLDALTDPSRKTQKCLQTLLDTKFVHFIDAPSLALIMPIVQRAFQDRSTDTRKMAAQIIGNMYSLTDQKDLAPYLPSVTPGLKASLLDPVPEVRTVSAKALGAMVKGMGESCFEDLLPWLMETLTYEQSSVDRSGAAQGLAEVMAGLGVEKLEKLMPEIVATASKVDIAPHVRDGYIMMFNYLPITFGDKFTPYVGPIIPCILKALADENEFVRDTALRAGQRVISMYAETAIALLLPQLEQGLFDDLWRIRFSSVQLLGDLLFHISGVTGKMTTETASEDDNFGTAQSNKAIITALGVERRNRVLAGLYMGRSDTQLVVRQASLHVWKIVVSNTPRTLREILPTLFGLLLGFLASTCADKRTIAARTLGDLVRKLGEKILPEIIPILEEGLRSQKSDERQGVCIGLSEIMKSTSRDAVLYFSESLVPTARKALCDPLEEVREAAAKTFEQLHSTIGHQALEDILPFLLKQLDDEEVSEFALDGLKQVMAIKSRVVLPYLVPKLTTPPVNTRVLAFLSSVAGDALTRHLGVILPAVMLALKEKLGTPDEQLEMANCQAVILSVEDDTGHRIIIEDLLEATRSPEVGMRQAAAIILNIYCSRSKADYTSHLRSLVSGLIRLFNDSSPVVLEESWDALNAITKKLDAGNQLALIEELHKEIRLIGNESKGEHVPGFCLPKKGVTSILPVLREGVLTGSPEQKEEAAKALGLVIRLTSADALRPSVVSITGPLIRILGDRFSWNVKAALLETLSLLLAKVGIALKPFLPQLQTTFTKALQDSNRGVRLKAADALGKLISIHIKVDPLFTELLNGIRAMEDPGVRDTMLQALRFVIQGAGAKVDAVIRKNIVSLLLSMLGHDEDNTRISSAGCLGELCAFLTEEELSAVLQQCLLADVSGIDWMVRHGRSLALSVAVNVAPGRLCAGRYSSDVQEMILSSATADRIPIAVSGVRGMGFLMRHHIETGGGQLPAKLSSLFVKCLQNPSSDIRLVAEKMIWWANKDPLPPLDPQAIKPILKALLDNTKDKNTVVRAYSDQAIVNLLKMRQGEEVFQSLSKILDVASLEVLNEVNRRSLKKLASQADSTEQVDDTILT
UniProt Q969V5: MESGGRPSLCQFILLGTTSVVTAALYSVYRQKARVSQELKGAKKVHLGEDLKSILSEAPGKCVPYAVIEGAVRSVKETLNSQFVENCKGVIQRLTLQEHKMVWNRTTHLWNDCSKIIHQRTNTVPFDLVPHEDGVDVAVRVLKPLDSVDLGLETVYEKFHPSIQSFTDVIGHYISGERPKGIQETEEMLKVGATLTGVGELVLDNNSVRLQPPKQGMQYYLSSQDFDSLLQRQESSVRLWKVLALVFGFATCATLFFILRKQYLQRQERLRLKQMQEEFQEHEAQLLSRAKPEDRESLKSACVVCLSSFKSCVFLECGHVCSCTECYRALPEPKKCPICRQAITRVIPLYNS
UniProt Q92673: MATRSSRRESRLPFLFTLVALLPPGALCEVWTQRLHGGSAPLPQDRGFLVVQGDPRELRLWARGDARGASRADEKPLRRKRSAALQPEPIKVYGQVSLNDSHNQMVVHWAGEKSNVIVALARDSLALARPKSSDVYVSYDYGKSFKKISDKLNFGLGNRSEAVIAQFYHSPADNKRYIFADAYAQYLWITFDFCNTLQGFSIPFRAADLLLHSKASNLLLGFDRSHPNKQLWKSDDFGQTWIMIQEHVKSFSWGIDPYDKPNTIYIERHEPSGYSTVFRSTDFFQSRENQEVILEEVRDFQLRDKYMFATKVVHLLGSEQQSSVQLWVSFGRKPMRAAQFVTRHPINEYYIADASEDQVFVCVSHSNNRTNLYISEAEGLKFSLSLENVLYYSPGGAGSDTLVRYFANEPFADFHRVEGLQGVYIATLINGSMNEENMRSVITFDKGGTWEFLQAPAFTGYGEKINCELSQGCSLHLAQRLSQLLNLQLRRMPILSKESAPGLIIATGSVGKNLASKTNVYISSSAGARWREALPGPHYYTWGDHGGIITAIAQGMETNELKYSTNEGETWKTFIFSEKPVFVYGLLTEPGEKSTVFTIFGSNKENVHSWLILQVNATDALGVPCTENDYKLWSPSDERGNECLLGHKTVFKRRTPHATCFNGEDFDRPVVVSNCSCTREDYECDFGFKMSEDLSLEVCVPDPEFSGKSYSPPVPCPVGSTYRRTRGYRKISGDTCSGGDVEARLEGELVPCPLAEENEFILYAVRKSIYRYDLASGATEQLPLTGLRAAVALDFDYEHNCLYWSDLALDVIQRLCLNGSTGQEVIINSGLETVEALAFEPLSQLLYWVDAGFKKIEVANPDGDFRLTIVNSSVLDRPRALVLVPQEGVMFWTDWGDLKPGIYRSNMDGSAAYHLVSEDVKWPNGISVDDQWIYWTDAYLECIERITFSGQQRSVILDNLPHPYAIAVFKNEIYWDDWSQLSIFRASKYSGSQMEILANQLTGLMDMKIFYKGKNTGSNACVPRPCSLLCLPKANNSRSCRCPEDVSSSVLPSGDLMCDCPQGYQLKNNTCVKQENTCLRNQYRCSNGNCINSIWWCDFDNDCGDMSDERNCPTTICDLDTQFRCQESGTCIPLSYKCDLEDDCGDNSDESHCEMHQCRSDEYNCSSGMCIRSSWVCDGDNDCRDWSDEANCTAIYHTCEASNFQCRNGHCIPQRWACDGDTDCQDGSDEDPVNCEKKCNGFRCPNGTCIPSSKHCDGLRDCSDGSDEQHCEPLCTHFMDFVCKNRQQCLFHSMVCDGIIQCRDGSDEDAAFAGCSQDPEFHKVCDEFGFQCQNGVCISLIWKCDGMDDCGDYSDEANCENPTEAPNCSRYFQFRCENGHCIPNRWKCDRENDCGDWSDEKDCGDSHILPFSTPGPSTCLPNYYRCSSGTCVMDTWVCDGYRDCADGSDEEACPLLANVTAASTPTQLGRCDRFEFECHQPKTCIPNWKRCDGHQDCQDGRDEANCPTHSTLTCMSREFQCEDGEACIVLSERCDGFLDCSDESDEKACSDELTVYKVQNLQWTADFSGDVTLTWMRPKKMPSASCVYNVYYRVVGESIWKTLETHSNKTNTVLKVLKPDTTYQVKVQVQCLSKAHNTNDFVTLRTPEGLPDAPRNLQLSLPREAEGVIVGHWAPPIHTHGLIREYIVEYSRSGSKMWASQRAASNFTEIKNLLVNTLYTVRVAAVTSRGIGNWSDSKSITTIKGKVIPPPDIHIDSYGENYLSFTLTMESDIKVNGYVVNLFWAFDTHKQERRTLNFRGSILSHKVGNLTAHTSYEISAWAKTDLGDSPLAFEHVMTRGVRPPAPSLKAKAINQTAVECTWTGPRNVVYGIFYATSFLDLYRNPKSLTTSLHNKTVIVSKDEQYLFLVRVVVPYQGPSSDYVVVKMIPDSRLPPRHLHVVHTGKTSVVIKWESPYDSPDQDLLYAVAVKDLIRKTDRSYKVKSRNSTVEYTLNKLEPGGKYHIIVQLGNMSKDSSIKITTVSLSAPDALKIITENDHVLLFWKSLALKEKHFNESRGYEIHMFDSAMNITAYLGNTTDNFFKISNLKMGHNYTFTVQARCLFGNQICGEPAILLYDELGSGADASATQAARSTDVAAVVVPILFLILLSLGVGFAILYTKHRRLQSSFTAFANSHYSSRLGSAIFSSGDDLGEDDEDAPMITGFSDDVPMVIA
UniProt Q92785, whole entry: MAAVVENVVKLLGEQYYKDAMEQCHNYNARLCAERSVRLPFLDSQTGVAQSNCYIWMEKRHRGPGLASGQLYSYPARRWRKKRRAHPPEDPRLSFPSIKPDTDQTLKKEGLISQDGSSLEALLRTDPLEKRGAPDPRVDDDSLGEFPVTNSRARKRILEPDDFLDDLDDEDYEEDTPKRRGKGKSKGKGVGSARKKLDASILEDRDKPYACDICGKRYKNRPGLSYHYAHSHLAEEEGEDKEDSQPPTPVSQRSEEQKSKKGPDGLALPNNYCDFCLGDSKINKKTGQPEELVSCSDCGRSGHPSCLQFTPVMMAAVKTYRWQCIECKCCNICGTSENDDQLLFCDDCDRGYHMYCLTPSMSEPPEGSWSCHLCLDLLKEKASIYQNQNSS
UniProt Q96EY1: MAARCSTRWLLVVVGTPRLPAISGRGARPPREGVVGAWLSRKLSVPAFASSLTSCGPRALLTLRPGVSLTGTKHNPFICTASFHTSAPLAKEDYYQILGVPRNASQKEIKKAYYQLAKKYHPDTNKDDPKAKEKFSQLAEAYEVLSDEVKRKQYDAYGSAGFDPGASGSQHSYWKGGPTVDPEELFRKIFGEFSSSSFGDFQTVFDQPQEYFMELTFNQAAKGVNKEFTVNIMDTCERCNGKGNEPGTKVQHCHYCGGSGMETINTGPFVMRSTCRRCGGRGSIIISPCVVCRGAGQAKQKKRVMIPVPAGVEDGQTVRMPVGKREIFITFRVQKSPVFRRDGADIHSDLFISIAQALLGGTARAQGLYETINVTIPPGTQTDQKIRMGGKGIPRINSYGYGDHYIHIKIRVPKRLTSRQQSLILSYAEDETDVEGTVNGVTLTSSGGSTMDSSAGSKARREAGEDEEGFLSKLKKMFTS

| Target | NP40-soluble protein abundance (concentration: 0.1mM) | NP40-soluble protein abundance (concentration: 0.5mM) | NP40-soluble protein abundance (concentration: 1mM) | NP40-soluble protein abundance (concentration: 2mM) | NP40-soluble protein abundance (concentration: 4mM) | NP40-soluble protein abundance (concentration: 6mM) | NP40-soluble protein abundance (concentration: 8mM) | NP40-soluble protein abundance (concentration: 10mM) |
| --- | --- | --- | --- | --- | --- | --- | --- | --- |
| UniProt Q96HA7 and related entries | 1.08 ± 0.18 | 1.07 ± 0.065 | 1.07 ± 0.093 | 1.12 ± 0.17 | 1.19 ± 0.2 | 1.14 ± 0.1 | 1.18 ± 0.18 | 1.18 ± 0.081 |
| OVCA2 (UniProt Q8WZ82) | 1.08 ± 0.11 | 1.04 ± 0.15 | 1.02 ± 0.17 | 0.993 ± 0.084 | 0.985 ± 0.14 | 1.01 ± 0.16 | 0.938 ± 0.16 | 0.868 ± 0.11 |
| UniProt Q969Y2 and related entries | 0.99 ± 0.054 | 0.966 ± 0.094 | 0.933 ± 0.035 | 0.931 ± 0.04 | 0.914 ± 0.038 | 0.899 ± 0.052 | 0.892 ± 0.04 | 0.886 ± 0.066 |
| UniProt Q92616 | 1.04 ± 0.041 | 1.06 ± 0.072 | 1.04 ± 0.067 | 1.06 ± 0.1 | 1.06 ± 0.1 | 1.02 ± 0.1 | 0.998 ± 0.081 | 0.969 ± 0.059 |
| CHMP7 (UniProt Q8WUX9) | 0.945 ± 0.058 | 0.935 ± 0.087 | 0.973 ± 0.085 | 0.92 ± 0.11 | 0.884 ± 0.074 | 0.9 ± 0.045 | 0.912 ± 0.1 | 0.889 ± 0.084 |
| MUL1 (UniProt Q969V5) | 1.19 ± 0.079 | 1.1 ± 0.059 | 1.21 ± 0.033 | 1.06 ± 0.032 | 1.05 ± 0.019 | 1.08 ± 0.046 | 1.05 ± 0.03 | 0.979 ± 0.016 |
| SORL1 (UniProt Q92673) | 0.966 ± 0.027 | 0.961 ± 0.059 | 0.974 ± 0.031 | 0.99 ± 0.081 | 1.01 ± 0.036 | 0.948 ± 0.053 | 0.966 ± 0.025 | 0.992 ± 0.078 |
| UniProt Q96BW9 and related entries | 1.05 ± 0.047 | 1.06 ± 0.036 | 1 ± 0.057 | 1.09 ± 0.013 | 1.024 ± 0.0028 | 1.01 ± 0.038 | 0.92 ± 0.016 | 0.909 ± 0.015 |
| DPF2 (UniProt Q92785) | 1.013 ± 0.0027 | 1.1 ± 0.058 | 1.1 ± 0.046 | 1.14 ± 0.1 | 1.14 ± 0.14 | 1.16 ± 0.15 | 1.2 ± 0.18 | 1.19 ± 0.22 |
| UniProt Q96AJ9 and related entries | 0.962 ± 0.028 | 0.931 ± 0.067 | 1.072 ± 0.0059 | 1.02 ± 0.056 | 1.06 ± 0.062 | 0.997 ± 0.054 | 0.971 ± 0.086 | 1.03 ± 0.043 |
| TRMT61A (UniProt Q96FX7) | 1.06 ± 0.077 | 1.07 ± 0.069 | 1.01 ± 0.093 | 1.06 ± 0.051 | 1.03 ± 0.051 | 1 ± 0.07 | 0.999 ± 0.15 | 0.994 ± 0.061 |
| UniProt Q92552 and related entries | 1.09 ± 0.062 | 1.15 ± 0.15 | 1.21 ± 0.19 | 1.27 ± 0.23 | 1.29 ± 0.26 | 1.23 ± 0.25 | 1.25 ± 0.28 | 1.17 ± 0.27 |
| FAF2 (UniProt Q96CS3) | 0.971 ± 0.097 | 0.967 ± 0.11 | 0.905 ± 0.056 | 0.885 ± 0.076 | 0.911 ± 0.055 | 0.876 ± 0.065 | 0.866 ± 0.061 | 0.873 ± 0.059 |
| UniProt Q969X5 and related entries | 1 ± 0.037 | 1.02 ± 0.044 | 0.894 ± 0.049 | 0.899 ± 0.05 | 0.895 ± 0.033 | 0.912 ± 0.032 | 0.864 ± 0.074 | 0.823 ± 0.05 |
| DNAJA3 (UniProt Q96EY1) | 1.04 ± 0.016 | 1.05 ± 0.082 | 1.11 ± 0.11 | 1.17 ± 0.069 | 1.26 ± 0.12 | 1.25 ± 0.12 | 1.28 ± 0.14 | 1.28 ± 0.11 |

Two neighbouring entries already listed:

| Target | NP40-soluble protein abundance (concentration: 0.1mM) | NP40-soluble protein abundance (concentration: 0.5mM) | NP40-soluble protein abundance (concentration: 1mM) | NP40-soluble protein abundance (concentration: 2mM) | NP40-soluble protein abundance (concentration: 4mM) | NP40-soluble protein abundance (concentration: 6mM) | NP40-soluble protein abundance (concentration: 8mM) | NP40-soluble protein abundance (concentration: 10mM) |
| --- | --- | --- | --- | --- | --- | --- | --- | --- |
| SORL1 (UniProt Q92673) | 0.966 ± 0.027 | 0.961 ± 0.059 | 0.974 ± 0.031 | 0.99 ± 0.081 | 1.01 ± 0.036 | 0.948 ± 0.053 | 0.966 ± 0.025 | 0.992 ± 0.078 |
| UniProt Q96BW9 and related entries | 1.05 ± 0.047 | 1.06 ± 0.036 | 1 ± 0.057 | 1.09 ± 0.013 | 1.024 ± 0.0028 | 1.01 ± 0.038 | 0.92 ± 0.016 | 0.909 ± 0.015 |

— the supplement of paper PMC6411743
